PubChem BioAssay AID504764, Drosophila RNAi Screening Center, 2011

Test: 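Genome-wide screen for regulators of Notch-driven gene expression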 (primary screen)
System: Drosophila Kc167 cells
Reagent: long dsRNA against Drosophila genes
Timing: about 5 days (4 days dsRNA, then 24 h after transfection)
Challenge: transfection of constitutively active membrane-tethered Notch lacking the extracellular domain, read 24 h later
Measured: 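Light from a Notch-responsive E(spl)m3 luciferase reporter under active Notch, with control-promoter and no-Notch reporter wells to normalise; raw counts from paired wells a and b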
Reading the numbers: induced reporter light, run 1, well a and induced reporter light, run 1, well b: higher = more light from the Notch target reporter with active Notch; control promoter light, run 1, well a and control promoter light, run 1, well b: higher = more light from the viral control promoter (cell number, transfection, viability); uninduced reporter light, run 1, well a: higher = more light from the Notch target reporter without active Notch
Active means: 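Hit if the duplicate-averaged log2 ratio of induced to control-promoter light gives a plate-wise z beyond ±2, or induced to uninduced beyond ±1.8; weak-control or discordant-duplicate wells dropped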
Meaning of the calls: active = modifier hit (raised or lowered Notch signal); inactive = not a hit
In all, the deposit lists about 22,000 reagents; this is a random part of those with a known target gene and a result. Over the whole deposit, 403 (1.9%) are marked active. 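Unnormalised raw counts per well; ratio z-scores behind the hit calls and whether each hit raises or lowers signal are not deposited.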 Unmarked entries are inactive. The record does not give: the amount of reagent.

target gene	amplicon	induced reporter light, run 1, well a	induced reporter light, run 1, well b	control promoter light, run 1, well a	control promoter light, run 1, well b	uninduced reporter light, run 1, well a
Pld (GeneID 35554)	DRSC04854	1.60e5	1.72e5	1.63e5	1.70e5	13205
G9a (GeneID 30971)	DRSC18619	1.03e5	1.12e5	1.74e5	1.99e5	7190
par-6 (GeneID 32752)	DRSC20359	1.05e5	93440	97675	40535	8330
CG1143 (GeneID 38329)	DRSC08188	67915	77095	1.21e5	1.02e5	5675
syd (GeneID 43905)	DRSC10963	1.22e5	1.05e5	67540	31035	9720
Pebp1 (GeneID 42644)	DRSC15354	2.21e5	2.07e5	2.08e5	2.18e5	14295
CG33270 (GeneID 2768982)	DRSC10584	1.57e5	1.17e5	1.25e5	1.64e5	13160
CG14903 (GeneID 42014)	DRSC15024	2.89e5	2.38e5	2.37e5	2.53e5	19990
Spt3 (GeneID 41461)	DRSC15465	1.05e5	1.23e5	1.42e5	85770	6815
Ankle2 (GeneID 32732)	DRSC20105	1.38e5	1.37e5	1.11e5	66715	10035
Ankle2 (GeneID 32732)	DRSC20106	49270	45620	70705	48065	7310
RpL37-2 (GeneID 37669)	DRSC04584	1.84e5	1.55e5	1.34e5	1.53e5	12075
Ilp6 (GeneID 31220)	DRSC17906	1.19e5	1.06e5	2.19e5	2.31e5	8405
CG2186 (GeneID 32017)	DRSC19838	2.36e5	1.91e5	2.32e5	1.95e5	12050
a10 (GeneID 39906)	DRSC11319	1.52e5	2.30e5	2.44e5	1.86e5	9110
CG15577 (GeneID 50378)	DRSC18065	1.43e5	1.96e5	3.79e5	3.57e5	11735
CG13955 (GeneID 35968)	DRSC06443	2.08e5	1.92e5	1.82e5	2.22e5	19680
Cpr5C (GeneID 31510)	DRSC18340	1.35e5	1.44e5	2.81e5	2.49e5	9582
Nplp3 (GeneID 59235)	DRSC09944	1.72e5	2.01e5	2.13e5	1.77e5	8865
CG13024 (GeneID 39880)	DRSC09904	56830	56755	65585	45365	4892

Look-ups from above.
CG13024 (GeneID 39880) [DRSC09904], uninduced reporter light, run 1, well a → 4892
For “control promoter light, run 1, well a”, Ankle2 (GeneID 32732) [DRSC20105] reads 1.11e5
